# Laboratory results taken from PubChem BioAssay AID493014 (National Center for Advancing Translational Sciences (NCATS), 2011).
# This is one part of the list. Further columns of the screen follow, without active or inactive calls. Compounds called inactive in the main read-out are mostly missing here. Words in brackets tell the shape of the fitted curve; partial curves, single points and poor fits give uncertain potencies.
# Assay: qHTS Assay to Find Inhibitors of Chronic Active B-Cell Receptor Signaling
# Conditions: ABC-DLBCL IkBa-CBG/CBR reporter, luminescence ratio (green luciferase fused to IkBa over red control in TMD8 lymphoma cells), 4 h
# How it was run: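 TMD8 ABC-DLBCL cells carrying doxycycline-inducible green luciferase fused to IkappaBalpha plus unfused red luciferase were exposed to compounds (up to 46 uM) for 4 hrs at 37C. Activity came from the overlap-corrected green/red luminescence ratio.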
# [1] = measured here: CBR red luminescence, cell number
# [2] = measured here: IkBa-CBG green luminescence
Structure (SMILES),AC50 [1],AC50 [2]
Cn1nnnc1SCC(=O)Nc1ccc(Oc2ccccc2)cc1,"11.6 µM [falling, partial curve, poor fit]",–
CCN1CCN(c2c(Cl)cccc2NC(=O)c2ccc(Br)o2)CC1,"0.411 µM [falling, full curve, poor fit]",–
COc1ccc(C(=O)Nc2cnn(Cc3c(F)cccc3Cl)c2)cc1OC,"0.631 µM [falling, single point]",–
COc1cccc(N=Nc2c(=O)[nH]n3c(=O)c4c([nH]c23)CCC4)c1,"20.6 µM [falling, partial curve]",–
COC(=O)C1=C(C(=O)c2ccccc2)C(c2ccccc2)n2nnnc2N1 (stereo unspecified),"0.708 µM [rising, full curve, poor fit]",–
COc1ccc(S(=O)(=O)Nc2ccccn2)cc1C,"3.98 µM [rising, full curve, poor fit]",–
Cn1c(=O)cc(SCC(=O)N2CCCC2)c2ccc(Cl)cc21,"3.55 µM [rising, single point]",–
O=C(NNC(=O)c1cccc(-n2cccc2)c1)c1ccccc1,"18.4 µM [rising, partial curve, poor fit]",–
CCC(C(=O)O/N=C(\N)c1ccccc1)c1ccccc1 (stereo unspecified),"20.6 µM [rising, single point]",–
O=C(NCCn1ccc2ccccc21)c1ccc2c(c1)OCO2,"10.3 µM [falling, partial curve, poor fit]",–
CS(=O)(=O)c1ccc(C(=O)OCc2nnc(-c3ccc(Cl)cc3)o2)cc1[N+](=O)[O-],"35.5 µM [falling, single point]",–
Cc1nc2ccc(Br)cc2c(-c2ccccc2)c1C(=O)O,"35.5 µM [rising, single point]",–
O=C(CNC(=O)c1ccco1)NCC(=O)OCc1cccc(C(=O)Oc2ccccc2)c1,"18.4 µM [rising, partial curve, poor fit]",–
CC1CN(C(=O)c2ccccc2)OC(c2ccc3c(c2)OCO3)O1 (stereo unspecified),"35.5 µM [falling, single point]",–
O=S(=O)(NCc1csc(-c2ccccc2)n1)c1ccc(Cl)s1,"29.1 µM [rising, single point]",–
CC1CCN(C(=O)CN(c2ccc3c(c2)OCCO3)S(=O)(=O)c2ccccc2)CC1,"35.5 µM [falling, single point]",–
Cn1c(N)c(C(=O)COC(=O)C2(c3ccc(F)cc3)CCCC2)c(=O)n(C)c1=O,"29.1 µM [rising, single point]",–
COc1cccc(C(=O)OCC(=O)c2c[nH]c3ccccc23)c1OC,"18.4 µM [falling, single point]",–
O=C(O)c1ccc(Cl)c(S(=O)(=O)NCC2CCCO2)c1 (stereo unspecified),"2.31 µM [rising, single point]",–
O=C(Nc1ccc(N2CCOCC2)cc1N1CCOCC1)c1cccs1,"2.31 µM [falling, partial curve, poor fit]",–
O=C(CSc1ncccc1-c1nc2ccccc2[nH]1)N1CCN(c2ccccc2F)CC1,"1.26 µM [falling, full curve, poor fit]",–

Structure (SMILES),AC50 [1],AC50 [2]
CC1CCCC(C)N1C(=O)CSc1nnnn1-c1cccc2c1CCCC2 (stereo unspecified),"35.5 µM [falling, partial curve, poor fit]",–
COc1ccccc1C(=O)Nc1nnc(-c2ccccc2)s1,"2 µM [falling, partial curve]",–
CCN(CC)C(=O)CCSc1nnc(-c2ccncc2)o1,"0.00461 µM [rising, full curve, poor fit]",–
Cc1ccc(OCC(=O)Nc2ccc(Cl)c(-c3nc4ncccc4o3)c2)c(C)c1,"11.2 µM [falling, partial curve, poor fit]",–
CC(C)NC(=O)CC(=O)N/N=C/c1c(F)cccc1Cl,"12.6 µM [rising, single point]",–
CCOc1ccc(CNC(=O)CCCn2nc(CC)n3c(cc4occc43)c2=O)cc1,"6.31 µM [rising, single point]",–
C[C@]12C=CC(=O)C=C1CC[C@@H]1[C@@H]2[C@@H](O)C[C@@]2(C)[C@H]1CC[C@]2(O)C(=O)COC(=O)CCC(=O)O,"6.51 µM [rising, partial curve]","7.31 µM [falling, partial curve, poor fit]"
Cc1cc2ncn(-c3ncnc4sc5c(c34)CCC(C)C5)c2cc1C (stereo unspecified),"17.8 µM [falling, partial curve, poor fit]",–
COc1ccccc1Nc1nnc(SCC(=O)c2cc(C)n(CC3CCCO3)c2C)s1 (stereo unspecified),"35.5 µM [falling, partial curve, poor fit]",–
Cc1cc(N2C(=O)CC(N3CCN(c4ccc(C(=O)c5cccs5)cc4)CC3)C2=O)no1 (stereo unspecified),"16.4 µM [falling, single point]",–
CC1(C)OC2CC3C4CC(F)C5=CC(=O)C=CC5(C)C4(F)C(O)CC3(C)C2(C(=O)CO)O1 (stereo unspecified),"0.355 µM [rising, full curve, poor fit]",–
CC(C)(C)NC(=S)NNC(=O)[C@H]1C[C@@H]1c1ccccc1,"8.91 µM [rising, partial curve, poor fit]",–
Cc1cc(C2CC(=O)Nc3ccccc3S2)c(C)s1 (stereo unspecified),"3.55 µM [rising, full curve, poor fit]",–
O=C(O)c1cccc(N2C(=O)CSC2=S)c1,"31.6 µM [falling, single point]",–
O=C(CNC(=O)c1ccc2c(c1)OCCO2)N/N=C/c1ccc(Cl)cc1,"25.1 µM [falling, partial curve]",–
COc1cc(S(=O)(=O)N2CCC(O)(c3cccc(C(F)(F)F)c3)CC2)ccc1-n1cnnn1,"8.2 µM [rising, partial curve, poor fit]",–
O=C(N/N=C/c1cccnc1)c1[nH]ncc1Br,"3.98 µM [falling, partial curve]",–
CCOC(=O)c1c(NC(=O)CN2CCCc3ccccc32)sc(C(C)=O)c1C,"0.731 µM [rising, full curve, poor fit]",–
Cc1cccn2c(=O)c(C=O)c(Sc3ncccn3)nc12,"22.4 µM [falling, single point]",–
c1cncc(-c2noc(-c3ccc4ccccc4c3)n2)c1,"12.6 µM [falling, single point]",–
COc1ccc(S(=O)(=O)N2N=C(C)Oc3ccccc3C2=O)cc1,"12.6 µM [rising, partial curve]",–

# Reprinted at random: five compounds from above, in no set order.
Structure (SMILES),AC50 [1],AC50 [2]
Cc1cc(N2C(=O)CC(N3CCN(c4ccc(C(=O)c5cccs5)cc4)CC3)C2=O)no1 (stereo unspecified),"16.4 µM [falling, single point]",–
O=C(N/N=C/c1cccnc1)c1[nH]ncc1Br,"3.98 µM [falling, partial curve]",–
CC1CCCC(C)N1C(=O)CSc1nnnn1-c1cccc2c1CCCC2 (stereo unspecified),"35.5 µM [falling, partial curve, poor fit]",–
CCOC(=O)c1c(NC(=O)CN2CCCc3ccccc32)sc(C(C)=O)c1C,"0.731 µM [rising, full curve, poor fit]",–
Cc1ccc(OCC(=O)Nc2ccc(Cl)c(-c3nc4ncccc4o3)c2)c(C)c1,"11.2 µM [falling, partial curve, poor fit]",–

# Carrying on.

Structure (SMILES),AC50 [1],AC50 [2]
COc1ccc(C(=O)/C=C/c2ccc3c(c2)OCCO3)cc1,"20 µM [falling, single point]",–
COC(=O)c1cccc(NC(=O)/C=C/c2ccc([N+](=O)[O-])cc2)c1,"3.66 µM [falling, full curve]",–
Nc1cc(=O)[nH]c(SCC(=O)Nc2cc(Cl)cc(Cl)c2)n1,"29.1 µM [rising, single point]","16.4 µM [falling, partial curve, poor fit]"
COc1ccc(NC(=O)Nc2ccc(Br)cn2)cc1OC,"6.51 µM [rising, single point]",–
CCOc1ccc(N2C(=O)Nc3ccccc3C2(O)C(=O)NCc2ccc3c(c2)OCO3)cc1 (stereo unspecified),"7.94 µM [falling, partial curve, poor fit]",–
C(=C\c1nnc(-c2cccs2)o1)/c1ccccc1,"10 µM [falling, partial curve]",–
Cc1ccc(/C=C(\C#N)C(=O)NCC2CCCO2)o1 (stereo unspecified),"29.1 µM [falling, single point]",–
O=C1/C(=C/c2ccncc2)SC(=S)N1C1CCS(=O)(=O)C1 (stereo unspecified),"3.98 µM [falling, full curve]",–
Cc1noc(C)c1C(=O)N1CCN(c2ccccc2O)CC1,"0.103 µM [rising, full curve]",–
CCC(CO)NCC#Cc1ccccc1 (stereo unspecified),"2.82 µM [rising, partial curve, poor fit]",–
Cc1cc2n(n1)C(c1ccccc1Cl)Nc1ccccc1-2 (stereo unspecified),"9.2 µM [rising, partial curve, poor fit]",–
Cc1[nH]n(-c2ccc(Br)cc2)c(=O)c1/C=N/NC(=O)c1ccccc1,"4.47 µM [falling, partial curve]",–
O=C(NCCCC1CCCC1)C1CCC(=O)N(Cc2ccc(Cl)cc2)C1 (stereo unspecified),"11.2 µM [falling, partial curve, poor fit]",–
CN(C)C(=O)CCc1ccc2c3c([nH]c2c1)[C@]1(C)[C@@H](C(=O)N2CCOCC2)C[C@H](CC(=O)NCc2cccc(C(F)(F)F)c2)C(=O)N1CC3,"18.4 µM [rising, single point]","32.6 µM [falling, single point]"
O=C(NC1CCCC1)c1cc(Nc2cccc(C(F)(F)F)c2)nc2ccccc12,"0.562 µM [falling, full curve, poor fit]",–
CS(=O)(=O)N(C(=O)NC(=O)NC1CCS(=O)(=O)C1)C1CCCCC1 (stereo unspecified),"5.01 µM [falling, single point]",–
CCOc1ccc2oc(=O)cc(C)c2c1,"0.326 µM [falling, full curve, poor fit]","4.11 µM [rising, partial curve, poor fit]"
Cc1cccc(NC(=O)Nc2cc(C)cc(C)n2)c1,"3.16 µM [rising, single point]",–
CCOC(=O)C1CCCN(S(=O)(=O)CCNC(=O)c2ccc3c(c2)OCO3)C1 (stereo unspecified),"16.4 µM [rising, partial curve, poor fit]",–
Cc1ccc(C(=O)C2=C(O)C(=O)N(CCCN3CCOCC3)C23C(=O)N(C)c2ccccc23)o1 (stereo unspecified),"35.5 µM [rising, single point]",–
